Reference: PubChem BioAssay AID686943 (Drosophila RNAi Screening Center, 2013)
The deposit covers about 23,000 reagents; shown is an unselected part of those with a known target gene and a result. 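Extra replicates exist only for a retested subset of genes; insulin dose and duration not given; both raised and lowered dpERK matter.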 Reagents against one gene are numbered here. A plus sign joins genes that one reagent is predicted to hit. Further read-outs or replicates are left out here. Reagent sequences are not shown. Not given: the amount of reagent, the time to read-out.

- Purpose: 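Knockdowns that increase or decrease active ERK after insulin receptor stimulation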 (primary screen)
- Cells: Drosophila S2R+ haemocyte-like cells expressing YFP-tagged ERK (Rolled)
- Knock-down reagent: long dsRNA against Drosophila genes
- Conditions: insulin stimulation versus unstimulated cells; dose and duration not given
- Measured: 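Per-plate z-scores of phospho-ERK immunostaining normalised to YFP-tagged ERK, measured with and without insulin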
- Reading the numbers: replicate 1, z-score of dpERK with insulin: higher = more active ERK per ERK-YFP after insulin

replicate 1, z-score of dpERK with insulin, by target and reagent
Rpt3R (GeneID 41190): #1 -1.54
gammaSnap2 (GeneID 41239): #1 0
CG17786 (GeneID 42879): #1 -0.1
TwdlS (GeneID 43209): #1 -0.11
PIG-A (GeneID 37020): #1 -0.17
Cdc2rk (GeneID 36051): #1 0.39
SmD1 (GeneID 44668): #1 1.11
CG15239 (GeneID 31343): #1 2.81
CG3437 (GeneID 39096): #1 0.26

Targets above whose target name starts with C or c:
replicate 1, z-score of dpERK with insulin, by target and reagent
CG17786 (GeneID 42879): #1 -0.1
Cdc2rk (GeneID 36051): #1 0.39
CG15239 (GeneID 31343): #1 2.81
CG3437 (GeneID 39096): #1 0.26

Further reagents:
replicate 1, z-score of dpERK with insulin, by target and reagent
eIF2Bdelta (GeneID 37706): #1 0.37
Camp (GeneID 36948): #1 0.07
Nepl19 (GeneID 43411): #1 0.6
CG12020 (GeneID 38233): #1 -0.14
CG17568 (GeneID 35198): #1 -0.01
CG13081 (GeneID 35245): #1 1.13
WRNexo (GeneID 42208): #1 0.6
Alg3 (GeneID 37754): #1 -0.54
KP78a + KP78b: #1 -0.7; #2 -0.5
asRNA:CR43470 + CG14830: #1 0.11
bb8 (GeneID 42756): #1 0.36
obst-I (GeneID 317966): #1 -0.08
Ir67b (GeneID 39194): #1 0.39
